According to the supplement of paper PMC8975748:
Where a name gives a salt, the structure may show the parent alone. ± gives the standard deviation of the averaged measurements. Some of the results follow. These are raw signals, not scaled to a control.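 One yeast strain harboring four plasmids, each bearing a fluorescent protein plus an amino-acid or uracil synthesis gene, founds the community. Random loss of plasmids produces mixed prototroph and auxotroph subpopulations. Cells were fixed, then counted with automated confocal fluorescence imaging, with DMSO-treated wells as vehicle reference.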

These compounds were tested on Saccharomyces cerevisiae BY4741 SeMeCo community (assay: imaged cell count per well (cells); higher = more cells). Conditions: 10 µM; 24 h; SM minimal medium.
Procedure: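 Same SeMeCo high-content imaging drug screen: Selleck FDA-approved drugs at 10 µM, 24 h in SM medium, 384-well plates, 3 replicates.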

Structure (SMILES)	imaged cell count per well
CCN(CC)CCOc1ccc(C(=C(Cl)c2ccccc2)c2ccccc2)cc1 [Clomifene citrate]	23500 ± 4000
C=CC1=C(C(=O)O)N2C(=O)[C@@H](NC(=O)/C(=N\O)c3csc(N)n3)[C@H]2SC1 [Cefdinir]	19700 ± 6300
COc1ccc(C(C)=O)c(O)c1 [Paeonol]	21600 ± 3600
C[C@H](Nc1ncnc2nc[nH]c12)c1cc2cccc(Cl)c2c(=O)n1-c1ccccc1 [Duvelisib (IPI-145, INK1197)]	21300 ± 4600
Cc1noc(NS(=O)(=O)c2ccc(N)cc2)c1C [Sulfisoxazole]	18900 ± 930
CCCN[C@H]1CCc2nc(N)sc2C1 [Pramipexole]	23900 ± 4500
COC(=O)C1=C(C)NC(C)=C(C(=O)OCCN(C)Cc2ccccc2)C1c1cccc([N+](=O)[O-])c1 (stereo not given) [Nicardipine HCl]	25900 ± 10000
c1ccc(C2CN3CCSC3=N2)cc1 (stereo not given) [Tetramisole HCl]	25700 ± 2600
CC[C@H]1OC(=O)C[C@@H](O)[C@H](C)[C@@H](O[C@@H]2O[C@H](C)[C@@H](O[C@H]3C[C@@](C)(O)[C@@H](O)[C@H](C)O3)[C@H](N(C)C)[C@H]2O)[C@@H](CC=O)C[C@@H](C)C(=O)/C=C/C(C)=C/[C@@H]1CO[C@@H]1O[C@H](C)[C@@H](O)[C@@H](OC)[C@H]1OC [Tylosin tartrate]	23400 ± 3400
NCc1ccccc1CC(=O)N[C@@H]1C(=O)N2C(C(=O)O)=C(CSc3nnnn3CC(=O)O)CS[C@H]12 [Ceforanide]	30800 ± 2300

Three compounds out of the list, sorted by SMILES length, low to high:
Structure (SMILES)	imaged cell count per well
CCCN[C@H]1CCc2nc(N)sc2C1 [Pramipexole]	23900 ± 4500
COC(=O)C1=C(C)NC(C)=C(C(=O)OCCN(C)Cc2ccccc2)C1c1cccc([N+](=O)[O-])c1 (stereo not given) [Nicardipine HCl]	25900 ± 10000
NCc1ccccc1CC(=O)N[C@@H]1C(=O)N2C(C(=O)O)=C(CSc3nnnn3CC(=O)O)CS[C@H]12 [Ceforanide]	30800 ± 2300
